{"source": "PubChem BioAssay AID493246 | Drosophila RNAi Screening Center – 2011", "test": "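Genes fly cells need to grow and stay alive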 (primary screen)", "cells": "Drosophila Kc and S2R+ cells", "reagent": "long dsRNA against Drosophila genes", "measured": "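Raw, unnormalised count of remaining cells in each well; per-plate z-scores of cell number underlie the calls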", "direction": "Kc cell number and S2R+ cell number: higher = more cells remaining", "rule for the call": "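Counted as a hit if cell number falls by a z-score of at least 3 within its plate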", "note": "The deposit covers about 21,000 reagents; this is a random part of those that have a named target and a result. Over the whole deposit, 429 (2%) got an active call. 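Values are raw and not normalised between plates; calls rest on per-plate z-scores that were not deposited.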 Entries without a mark were called inactive. A plus sign joins genes that one reagent is predicted to hit. The record does not give: the amount of reagent, the time to read-out."}
{"Target gene": "CG42634 + CG42635", "DRSC id": "DRSC02450", "Kc cell number, rep 1": 1.61e6, "Kc cell number, rep 2": 1.65e6, "S2R+ cell number, rep 1": 1.33e6, "S2R+ cell number, rep 2": 1.50e6}
{"Target gene": "Gal (beta galactosidase)", "DRSC id": "DRSC03134", "Kc cell number, rep 1": 1.63e6, "Kc cell number, rep 2": 1.58e6, "S2R+ cell number, rep 1": 1.24e6, "S2R+ cell number, rep 2": 1.37e6}
{"Target gene": "CG6847", "DRSC id": "DRSC19213", "Kc cell number, rep 1": 1.27e6, "Kc cell number, rep 2": 1.42e6, "S2R+ cell number, rep 1": 1.03e6, "S2R+ cell number, rep 2": 1.14e6}
{"Target gene": "CG6847", "DRSC id": "DRSC20009", "Kc cell number, rep 1": 1.52e6, "Kc cell number, rep 2": 1.54e6, "S2R+ cell number, rep 1": 1.14e6, "S2R+ cell number, rep 2": 1.23e6}
{"Target gene": "mthl5 (methuselah-like 5)", "DRSC id": "DRSC16155", "Kc cell number, rep 1": 1.69e6, "Kc cell number, rep 2": 1.69e6, "S2R+ cell number, rep 1": 1.34e6, "S2R+ cell number, rep 2": 1.45e6}
{"Target gene": "Lcp4 (Larval cuticle protein 4)", "DRSC id": "DRSC07458", "Kc cell number, rep 1": 1.52e6, "Kc cell number, rep 2": 1.62e6, "S2R+ cell number, rep 1": 1.27e6, "S2R+ cell number, rep 2": 1.40e6}
{"Target gene": "VhaSFD (Vacuolar H[+]-ATPase SFD subunit)", "DRSC id": "DRSC03471", "Kc cell number, rep 1": 1.20e6, "Kc cell number, rep 2": 1.28e6, "S2R+ cell number, rep 1": 1.30e6, "S2R+ cell number, rep 2": 1.37e6}
{"Target gene": "Gem2 (Gemin 2)", "DRSC id": "DRSC09721", "Kc cell number, rep 1": 1.53e6, "Kc cell number, rep 2": 1.51e6, "S2R+ cell number, rep 1": 1.32e6, "S2R+ cell number, rep 2": 1.44e6}
{"Target gene": "CG13634", "DRSC id": "DRSC14635", "Kc cell number, rep 1": 1.50e6, "Kc cell number, rep 2": 1.48e6, "S2R+ cell number, rep 1": 9.46e5, "S2R+ cell number, rep 2": 1.10e6}
{"Target gene": "PRL-1 (PRL-1 phosphatase)", "DRSC id": "DRSC03393", "Kc cell number, rep 1": 1.39e6, "Kc cell number, rep 2": 1.53e6, "S2R+ cell number, rep 1": 1.24e6, "S2R+ cell number, rep 2": 1.45e6}
{"Target gene": "CG15012", "DRSC id": "DRSC08465", "Kc cell number, rep 1": 1.36e6, "Kc cell number, rep 2": 1.43e6, "S2R+ cell number, rep 1": 1.17e6, "S2R+ cell number, rep 2": 1.17e6}
{"Target gene": "Wnt10 (Wnt oncogene analog 10)", "DRSC id": "DRSC00990", "Kc cell number, rep 1": 1.54e6, "Kc cell number, rep 2": 1.59e6, "S2R+ cell number, rep 1": 9.82e5, "S2R+ cell number, rep 2": 1.16e6}
{"Target gene": "Wnt10 (Wnt oncogene analog 10)", "DRSC id": "DRSC02797", "Kc cell number, rep 1": 1.78e6, "Kc cell number, rep 2": 1.87e6, "S2R+ cell number, rep 1": 1.18e6, "S2R+ cell number, rep 2": 1.29e6}

A stretch from the list above:
{"Target gene": "CG6847", "DRSC id": "DRSC19213", "Kc cell number, rep 1": 1.27e6, "Kc cell number, rep 2": 1.42e6, "S2R+ cell number, rep 1": 1.03e6, "S2R+ cell number, rep 2": 1.14e6}
{"Target gene": "CG6847", "DRSC id": "DRSC20009", "Kc cell number, rep 1": 1.52e6, "Kc cell number, rep 2": 1.54e6, "S2R+ cell number, rep 1": 1.14e6, "S2R+ cell number, rep 2": 1.23e6}
